Assay results taken from PMC8195999.
These are yes or no findings as the source states them, for the method shown. Binding seen in cells or lysates may run through a third protein. A yes stands for co-enrichment or nearness to the bait. Other partners may have been found. For some of these results: A no says only that the protein was not detected with the bait.

The chains behind the UniProt entries cited, without tags or fusion partners.
UniProt O54917: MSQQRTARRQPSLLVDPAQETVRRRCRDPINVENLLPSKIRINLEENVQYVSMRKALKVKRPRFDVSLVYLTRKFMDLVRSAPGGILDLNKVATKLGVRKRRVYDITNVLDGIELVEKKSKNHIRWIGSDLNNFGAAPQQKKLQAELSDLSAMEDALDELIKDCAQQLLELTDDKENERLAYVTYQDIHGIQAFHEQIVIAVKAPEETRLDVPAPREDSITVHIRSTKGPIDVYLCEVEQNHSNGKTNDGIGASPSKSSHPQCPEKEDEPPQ

What was measured:
3×HA-E2F6, O54917 = test: affinity purification with mass spectrometry; anti-HA microbeads (mMACS, Miltenyi Biotec) on 1 mg nuclear extract of E14TG2a ESCs expressing 3×HA-E2F6 against control E14TG2a cells; nanoLC-MS/MS, spectral counts; enriched: fold change >2 and adjusted p-value < 0.05; n = 5; conditions: remark: other sources report otherwise
3×HA-E2F6 = 3×HA-E2F6 (UniProt O54917); test: as above

| Binder | binding (3×HA-E2F6, O54917) | binding (3×HA-E2F6) |
| --- | --- | --- |
| PCGF6 (protein, UniProt Q99NA9 1-353) MDEAETDATENKRASEAKRASAMPPPPPPPPPISPPALIPAPAAGEEGPASLGQAGAAGCSRSRPPALEPERSLGRLRGRFEDYDEELEEEEEMEEEEEEEEEMSHFSLRLESGRADSEDEEERLINLVELTPYILCSICKGYLIDATTITECLHTFCKSCIVRHFYYSNRCPKCNIVVHQTQPLYNIRLDRQLQDIVYKLVINLEEREKKQMHDFYKERGLEVPKPAAPQPVPSSKGKTKKVLESVFRIPPELDMSLLLEFIGANEDTGHFKPLEKKFVRVSGEATIGHVEKFLRRKMGLDPACQVDIICGDHLLERYQTLREIRRAIGDTAMQDGLLVLHYGLVVSPLKIT |  | binds |
| DP1 (protein, UniProt Q08639 1-410) MAKDASLIEANGELKVFIDQNLSPGKGVVSLVAVHPSTVNTLGKQLLPKTFGQSNVNITQQVVIGTPQRPAASNTIVVGSPHTPNTHFVSQNQTSDSSPWSAGKRNRKGEKNGKGLRHFSMKVCEKVQRKGTTSYNEVADELVAEFSAADNHILPNESAYDQKNIRRRVYDALNVLMAMNIISKEKKEIKWIGLPTNSAQECQNLEVERQRRLERIKQKQSQLQELILQQIAFKNLVQRNRQAEQQARRPPPPNSVIHLPFIIVNTSRKTVIDCSISNDKFEYLFNFDNTFEIHDDIEVLKRMGMACGLESGNCSAEDLKVARSLVPKALEPYVTEMAQGSIGGVFVTTTGSTSNGTRLSASDLSNGADGMLATSSNGSQYSGSRVETPVSYVGEDDDDDDDFNENDEED |  | binds |

The next lines start with the values.

| binding (3×HA-E2F6, O54917) | binding (3×HA-E2F6) | Binder |
| --- | --- | --- |
| binds |  | RING1B, Q9CQJ4 1-336 (protein) MSQAVQTNGTQPLSKTWELSLYELQRTPQEAITDGLEIVVSPRSLHSELMCPICLDMLKNTMTTKECLHRFCADCIITALRSGNKECPTCRKKLVSKRSLRPDPNFDALISKIYPSRDEYEAHQERVLARINKHNNQQALSHSIEEGLKIQAMNRLQRGKKQQIENGSGAEDNGDSSHCSNASTHSNQEAGPSNKRTKTSDDSGLELDNNNAAVAIDPVMDGASEIELVFRPHPTLMEKDDSAQTRYIKTSGNATVDHLSKYLAVRLALEELRSKGESNQMNLDTASEKQYTIYIATASGQFTVLNGSFSLELVSEKYWKVNKPMELYYAPTKEHK |
|  | no binding | UHRF1 (protein, UniProt Q8VDF2 1-782) MWIQVRTMDGKETHTVNSLSRLTKVQELRKKIEEVFHVEPQLQRLFYRGKQMEDGHTLFDYDVRLNDTIQLLVRQSLALPLSTKERDSELSDSDSGYGVGHSESDKSSTHGEGAAEADDKTVWEDTDLGLYKVNEYVDVRDNIFGAWFEAQVVQVQKRALSEDEPCSSSAVKTSEDDIMYHVKYDDYPEHGVDIVKAKNVRARARTVIPWENLEVGQVVMANYNVDYPRKRGFWYDVEICRKRQTRTARELYGNIRLLNDSQLNNCRIMFVDEVLMIELPKERRPLIASPSQPPPALRNTGKSGPSCRFCKDDENKPCRKCACHVCGGREAPEKQLLCDECDMAFHLYCLKPPLTSVPPEPEWYCPSCRTDSSEVVQAGEKLKESKKKAKMASATSSSRRDWGKGMACVGRTTECTIVPANHFGPIPGVPVGTMWRFRVQVSESGVHRPHVAGIHGRSNDGAYSLVLAGGYEDDVDNGNYFTYTGSGGRDLSGNKRTAGQSSDQKLTNNNRALALNCHSPINEKGAEAEDWRQGKPVRVVRNMKGGKHSKYAPAEGNRYDGIYKVVKYWPERGKSGFLVWRYLLRRDDTEPEPWTREGKDRTRQLGLTMQYPEGYLEALANKEKSRKRPAKALEQGPSSSKTGKSKQKSTGPTLSSPRASKKSKLEPYTLSEQQANLIKEDKGNAKLWDDVLTSLQDGPYQIFLSKVKEAFQCICCQELVFRPVTTVCQHNVCKDCLDRSFRAQVFSCPACRFELDHSSPTRVNQPLQTILNQLFPGYGSGR |
